# For at least one compound, name, drawing or mass did not settle the structure.
# Experiments:
# apoptotic Jurkat cells = experiment: Selective binding of NST-892 to apoptotic Jurkat cells; flow-cytometric (FACS) analysis; type: cell-based, human; conditions: anti-Fas Ab induced apoptosis; FACS dot plot, right lower quadrant
# Method: Cultured Jurkat cells (human […] T cell leukemia cells) were grown in suspension in RPMI medium (Beit-Haemek, Israel), supplemented with 10% of fetal calf serum (FCS), 4 mM of L-glutamine, 1 mM of sodium pyruvate, 1 mM CaCl2 and antibiotics (100 units/ml penicilin; 100 μg/ml streptomycin and 12.5 units/ml of nystatin) Prior to induction of apoptosis, medium was replaced with HBS buffer (10 mM HEPES; 140 mM NaCl, 1 mM CaCl). Apoptosis was then triggered by treatment with anti-Fas Ab (0.1 μg/ml; 2.5 hrs). Both control cells and apoptotic cells were then incubated for 20 minutes with 500 μM of NST-892 dissolved in 0.1 m NaPpi pH=7.4. Subsequently, cells were co-stained with propidium iodide (PI), a marker of membrane disintegration during late phases of cell death, and the selective binding of the NST-892 compounds to control and apoptotic cells was determined by flow cytometric (FACS) analysis using Becton-Dickinson cell sorter and CellQuest software (excitation was at 356 nm and emission was measured at 530 nm).
# [1] = tested on: chemotherapy-induced apoptotic cells of murine melanoma (B16-F10) tumors; experiment: Targeting of NST 892 in vivo to chemotherapy-induced apoptotic cells of murine melanoma tumors in mice; fluorescent microscopy of frozen sections; conditions: 2 hours
# [2] = B16-F10 tumor in mice, 2.8 mg/mouse
compound,measurement,setting,value
"CN(C)c1cccc2c(S(=O)(=O)NC(C(=O)O)c3cccc4c(C(N)C(=O)O)cccc34)cccc12 (stereo not drawn) [NST-892, Mono Dansyl Naphthalene Diglycine]",binding to Jurkat cells in the early stages of apoptosis,apoptotic Jurkat cells,selectively binding
same,binding to tumor cells undergoing apoptosis,"[1]; B16-F10 tumor in mice after Taxol + Cyclophosphomid, 2.8 mg/mouse systemic",Extensive binding
same,staining of viable tumor cells,[1]; [2],remain unstained
same,uptake into apoptotic tumor cells (selectivity),[1]; [2],marked uptake
same,binding to viable cells in non-target tissues,"[1]; kidney, spleen and muscle of mice, 2.8 mg/mouse",relatively lack of binding
same,"binding to normal, viable tissue surrounding the tumor","[1]; mice, 2.8 mg/mouse",lack of binding

# — patent publication US7605182B2, “Compounds that selectively bind to membranes of apoptotic cells” (Aposense Ltd., priority 2003, dated 2009)
